Here are results for three molecules from PMC2829054.

Chains of the proteins cited; added tags and fusions are not shown.
UniProt Q13535: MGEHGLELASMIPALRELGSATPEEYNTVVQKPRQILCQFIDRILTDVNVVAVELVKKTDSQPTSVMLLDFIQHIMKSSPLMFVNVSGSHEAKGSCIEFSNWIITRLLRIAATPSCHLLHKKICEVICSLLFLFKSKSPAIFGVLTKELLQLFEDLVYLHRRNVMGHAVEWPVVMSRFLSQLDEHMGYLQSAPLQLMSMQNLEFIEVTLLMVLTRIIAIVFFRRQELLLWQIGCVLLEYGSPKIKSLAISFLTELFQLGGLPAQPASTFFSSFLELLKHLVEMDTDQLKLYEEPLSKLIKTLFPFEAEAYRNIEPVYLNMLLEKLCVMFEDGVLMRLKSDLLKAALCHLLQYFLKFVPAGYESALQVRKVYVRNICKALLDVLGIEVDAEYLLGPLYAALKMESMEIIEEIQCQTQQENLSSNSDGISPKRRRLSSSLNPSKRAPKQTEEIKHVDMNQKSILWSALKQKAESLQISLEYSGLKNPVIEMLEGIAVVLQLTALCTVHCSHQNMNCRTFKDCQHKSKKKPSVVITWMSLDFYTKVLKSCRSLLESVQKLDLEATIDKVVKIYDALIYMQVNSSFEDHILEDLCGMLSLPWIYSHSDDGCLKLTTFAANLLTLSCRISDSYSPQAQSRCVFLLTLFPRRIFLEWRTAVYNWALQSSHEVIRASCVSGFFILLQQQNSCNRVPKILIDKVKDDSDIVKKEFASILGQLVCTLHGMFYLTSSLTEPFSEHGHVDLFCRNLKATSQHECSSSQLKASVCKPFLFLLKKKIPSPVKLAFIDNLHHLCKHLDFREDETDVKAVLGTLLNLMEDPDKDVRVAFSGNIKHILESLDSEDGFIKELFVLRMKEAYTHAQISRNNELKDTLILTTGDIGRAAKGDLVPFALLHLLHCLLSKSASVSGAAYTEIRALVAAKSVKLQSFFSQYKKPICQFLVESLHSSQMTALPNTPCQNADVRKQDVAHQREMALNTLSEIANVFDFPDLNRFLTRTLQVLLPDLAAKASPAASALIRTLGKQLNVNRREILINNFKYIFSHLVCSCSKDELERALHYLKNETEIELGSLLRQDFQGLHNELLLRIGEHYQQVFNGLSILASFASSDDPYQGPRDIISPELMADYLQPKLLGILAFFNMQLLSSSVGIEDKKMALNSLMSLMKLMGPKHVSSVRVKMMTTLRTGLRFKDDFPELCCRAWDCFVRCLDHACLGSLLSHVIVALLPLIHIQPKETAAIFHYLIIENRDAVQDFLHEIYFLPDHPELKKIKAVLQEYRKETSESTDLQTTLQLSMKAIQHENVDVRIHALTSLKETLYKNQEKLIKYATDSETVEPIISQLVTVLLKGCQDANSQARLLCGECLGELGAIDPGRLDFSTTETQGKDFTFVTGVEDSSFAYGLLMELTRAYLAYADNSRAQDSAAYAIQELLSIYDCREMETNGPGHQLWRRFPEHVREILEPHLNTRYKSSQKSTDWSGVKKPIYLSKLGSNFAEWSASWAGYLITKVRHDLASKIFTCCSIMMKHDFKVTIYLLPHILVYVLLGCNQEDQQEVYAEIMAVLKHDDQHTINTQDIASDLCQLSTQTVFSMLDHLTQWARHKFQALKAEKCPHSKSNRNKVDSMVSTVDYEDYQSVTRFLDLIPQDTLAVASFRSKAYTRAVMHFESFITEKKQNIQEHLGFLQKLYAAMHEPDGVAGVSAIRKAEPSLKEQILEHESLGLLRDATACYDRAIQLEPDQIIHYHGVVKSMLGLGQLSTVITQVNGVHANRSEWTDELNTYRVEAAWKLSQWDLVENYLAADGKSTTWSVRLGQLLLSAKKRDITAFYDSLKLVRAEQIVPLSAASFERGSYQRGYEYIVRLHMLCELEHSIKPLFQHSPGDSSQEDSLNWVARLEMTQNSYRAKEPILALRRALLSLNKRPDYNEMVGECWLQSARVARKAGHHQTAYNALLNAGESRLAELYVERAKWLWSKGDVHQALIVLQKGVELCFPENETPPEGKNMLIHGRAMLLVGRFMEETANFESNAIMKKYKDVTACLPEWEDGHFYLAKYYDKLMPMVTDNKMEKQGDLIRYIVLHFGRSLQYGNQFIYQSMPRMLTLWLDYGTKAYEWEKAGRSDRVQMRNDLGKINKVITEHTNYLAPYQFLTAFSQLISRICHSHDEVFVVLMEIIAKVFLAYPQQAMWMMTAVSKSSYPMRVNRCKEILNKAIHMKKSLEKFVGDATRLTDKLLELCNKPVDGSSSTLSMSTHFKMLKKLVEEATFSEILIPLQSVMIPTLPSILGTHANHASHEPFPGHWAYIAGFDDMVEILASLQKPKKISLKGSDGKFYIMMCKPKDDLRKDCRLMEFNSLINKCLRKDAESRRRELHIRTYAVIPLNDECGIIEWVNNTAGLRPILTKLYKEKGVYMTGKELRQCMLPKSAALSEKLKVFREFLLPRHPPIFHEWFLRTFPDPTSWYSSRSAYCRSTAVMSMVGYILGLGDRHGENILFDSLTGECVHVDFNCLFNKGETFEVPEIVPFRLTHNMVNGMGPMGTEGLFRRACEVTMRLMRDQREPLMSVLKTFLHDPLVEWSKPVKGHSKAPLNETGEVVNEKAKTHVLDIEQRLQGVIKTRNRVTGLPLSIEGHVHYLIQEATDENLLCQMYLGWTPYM

Numbering of substitutions follows the chain as printed. No constants are given. Whether binding was seen depends on the method and setting. Binding seen in cells or lysates may run through a third protein. Some results given as binding are weak or reduced against the parent protein; the word gives no strength. For part of these data: Tags and fused reporters may be left off the sequences shown.

Experiment [1] deals with T1, HA-tagged Cdc6 (human) (UniProt Q99741).
T1 sequence: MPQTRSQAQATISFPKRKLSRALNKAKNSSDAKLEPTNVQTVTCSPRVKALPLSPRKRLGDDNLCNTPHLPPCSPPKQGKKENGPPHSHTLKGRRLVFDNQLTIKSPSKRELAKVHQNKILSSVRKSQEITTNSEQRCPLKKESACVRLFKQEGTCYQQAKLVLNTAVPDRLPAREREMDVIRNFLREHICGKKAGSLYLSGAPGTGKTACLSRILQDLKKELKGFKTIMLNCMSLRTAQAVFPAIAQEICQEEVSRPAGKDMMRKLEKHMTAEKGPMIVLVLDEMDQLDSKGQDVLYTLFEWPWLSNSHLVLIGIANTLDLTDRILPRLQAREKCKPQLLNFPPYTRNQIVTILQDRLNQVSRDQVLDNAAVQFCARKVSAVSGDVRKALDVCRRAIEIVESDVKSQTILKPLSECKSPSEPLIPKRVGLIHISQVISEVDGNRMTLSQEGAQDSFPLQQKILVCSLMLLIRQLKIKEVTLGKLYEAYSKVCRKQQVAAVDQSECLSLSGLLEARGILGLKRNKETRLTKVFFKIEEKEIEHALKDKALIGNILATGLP
In words: co-IP; co-immunoprecipitation of Cdc6 and ATR with 50 µg/ml ethidium bromide (data not shown).

For experiment [2], the target named is T1, HA-tagged Cdc6 (human). Kind of experiment: co-IP; anti-HA immunoprecipitation from non-denatured lysates of transfected HCT116 or CDK2 knockout cells, untreated or 4 h after 12 Gy IR; immunoblot for ATR.
Experiment [3] addresses T2, HA-tagged non-phosphorylatable Cdc6 (S54A, S74A, S106A) (human) (UniProt Q99741).
T2 sequence: T1 sequence with S54A, S74A, S106A
The description is as above.

In experiment [4] the target is T3, HA-tagged phosphomimetic Cdc6 (S54D, S74D, S106D) (human) (UniProt Q99741).
T3 sequence: T1 sequence with S54D, S74D, S106D
Described as above.

The target of experiment [5] is ATR (human (endogenous in HCT116 and U2OS)) (UniProt Q13535). Kind of experiment: co-IP; anti-ATR immunoprecipitation of endogenous proteins from non-denatured lysates of HCT116 and isogenic cells, before or 4 h after 12 Gy IR; Protein A/G agarose overnight at 4°C; immunoblot.
For experiment [6] the target is unchanged. Kind of experiment: co-IP; anti-ATR immunoprecipitation from non-denatured lysates of HCT116 or U2OS cells transfected with HA-Cdc6, untreated or 4 h after 12 Gy IR; immunoblot for HA-Cdc6. On the technique in general: In western blotting, separated proteins are transferred to a membrane and probed.

Turning to “ATR (from UniProt Q13535 1-2644) (enzyme)”, the binding result (with HA-tagged Cdc6 (human) [1]; with HA-tagged Cdc6 (human) [2]; in experiment [3]; in experiment [4]) was “binds” each time.

B1: Cdc6 (endogenous) (protein, UniProt Q99741 1-560)
chain: T1 sequence
For B1, in experiment [5], the binding result was “binds”.

B2: HA-tagged Cdc6 (protein, UniProt Q99741 1-560)
chain: T1 sequence
As to B2, the binding entry in experiment [6] is listed as “binds”.
